Data from article PMC4784862, “DNA Sequence Determinants Controlling Affinity, Stability and Shape of DNA Complexes Bound by the Nucleoid Protein Fis”.
These are yes or no findings as the source states them, for the method shown. Some entries that bind do so weakly or less than the wild type.

Chains of the proteins cited; added tags and fusions are not shown.
UniProt P0A6R3: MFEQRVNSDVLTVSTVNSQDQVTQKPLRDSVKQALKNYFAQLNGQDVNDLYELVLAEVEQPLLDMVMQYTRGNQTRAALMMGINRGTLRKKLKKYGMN

Target: Fis nucleoid protein (UniProt P0A6R3)
Test: crystal structure; Fis co-crystallized with 27 bp DNA duplexes (F35, F1±8A, F1±8C, F1±8G, F31, F32); protein chains A and B in one asymmetric unit; space group C2 (F35) or P2_(1)2_(1)2_(1); data collected at 100 K; both purified

Fis nucleoid protein (from UniProt P0A6R3 1-98)
binding: binds
